Measurements as given in patent US9388224B2, “Compositions for preserving insulin-producing cells and insulin production and treating diabetes” (VANDERBILT UNIVERSITY, priority 2011, dated 2016).
Part of at least one peptide drawing is inferred or uncertain, most often the ends. Bridge positions count the residues as written; N and C are the ends. Peptide text beside a SMILES is read from it.

Columns and labels:
[1] = test system: C57BL/6 and BALB/c strains; details: murine models of acute inflammation and apoptosis; cited from earlier work
[2] = test system: islet-reactive BDC2.5 lymphocytes; assay: In vivo tracking of islet-reactive BDC2.5 CD4 T cells in pancreatic lymph nodes; set-up: species or system NOD mice; details: osmotic pump for 4 days; day 4 post-transfer; vs saline; p<0.05
insulitis in NOD mice = assay: Insulitis in cyclophosphamide-synchronized NOD mice (immunohistochemistry); type: in vivo
[3] = test system: autoimmune diabetes in NOD mice; assay: Autoimmune diabetes progression in cyclophosphamide-synchronized NOD mice (blood glucose); type: in vivo
Excerpt: NOD/LtJ, NOD-BDC2.5 and C57BL/6 mice were purchased from the Jackson Laboratories (Bar Harbor, Me.) at 6-8 weeks of age. All mice were housed and maintained according to the guidelines for use and care of laboratory animals as set forth by Vanderbilt University and regulated via the Vanderbilt IACUC. All NOD mice were monitored twice weekly for the development of diabetes by blood glucose measurement with FreeStyle® FastTake test strips (Abbott Laboratories, Abbott Park, Ill.). Two consecutive glucose measurements >220 mg/dl constituted a diagnosis of diabetes. A colony of NOD mice kept by a collaborating laboratory in the same animal suite has a spontaneous diabetes incidence of 80-90% in females by 30 weeks of age indicating an animal environment that is conducive for diabetes development.
At 10-11 weeks of age, female NOD mice received an intraperitoneal bolus injection of 200 mg/kg cyclophosphamide (Sigma). Cyclophosphamide was prepared by reconstitution of powder in sterile saline for injection.
45 h after diabetes synchronization with cyclophosphamide, treatment with cSN50 or control was initiated. Mice receiving cSN50 were given 35 μg/g of cSN50 i.p. every two hours for the next 48 h. Control mice received either saline or non-cell penetrating cN50 peptide at molar equivalent (20 μg/g). cN50 peptide, contains the cyclized NLS but lacks the membrane translocating motif. All injections were delivered in a volume of 100 μl of sterile saline
After 45 h, a high intensity treatment protocol was utilized to assure a steady level of Nuclear Transport Modifier in blood and pancreas; control mice received saline or control peptide at molar equivalent.

[4] = test system: NOD splenocytes, CD4 and CD8 T cells; assay: Ex vivo activation-induced cell death (AICD) and proliferation of T cells (CFSE, annexin V); type: cell-based, NOD mice; details: cSN50 30 μM
[5] = test system: plasma cytokines/chemokines of NOD mice; assay: Plasma cytokine levels during treatment (cytokine bead array); type: in vivo; details: day 2 after Cy administration; p<0.05 (days 2 and 3)
regulatory T cells = assay: Absolute number of regulatory T cells (intracellular Foxp3 staining); type: in vivo, NOD mice; details: end of treatment (48 h) or two weeks after treatment concluded
[6] = test system: NOD-derived B lymphocytes (CD19+); assay: CD80 (B7.1) up-regulation on LPS-stimulated B cells (flow cytometry); type: cell-based, NOD mice; details: LPS 5 μg/ml, cSN50 30 μM, p<0.01
[7] = test system: NOD B lymphocytes (CD19+); assay: Apoptosis of LPS-stimulated B lymphocytes (annexin V); type: cell-based, NOD mice; details: LPS 5 μg/ml; cSN50 30 μM; 70 h; p<0.005
[8] = test system: Splenocytes from 10 week old NOD females; assay: IFN-γ production by stimulated NOD splenocytes (cytokine bead array); type: cell-based, NOD mice; details: anti-CD3/CD28 (2 μg/ml) or conA (1 μg/ml); cSN50 30 μM; supernatants at 72 h; p<0.01
[9] = test system: Splenocytes from 10 week-old NOD females; assay: IL-10 production by LPS-restimulated splenocytes from treated animals; set-up: species or system NOD mice; details: 24 hr in vivo treatment vs cN50; LPS restimulation; supernatants at 72 h; p<0.05
[10] = test system: bone marrow-derived macrophages (BMDM) from NOD mice; assay: Pro-inflammatory cytokine production in LPS-stimulated bone marrow derived-macrophages; type: cell-based; details: LPS 10 ng/ml; cSN50 30 μM; p<0.05
[11] = one year after short-course treatment, three treated mice

## CSCC[C@@H]1NC(=O)[C@H](CC(C)C)NC(=O)[C@H](CCCCN)NC(=O)[C@H](CCC(N)=O)NC(=O)[C@H](CCCNC(=N)N)NC(=O)[C@H](CCCCN)NC(=O)[C@H](CCCNC(=N)N)NC(=O)[C@H](CCC(N)=O)NC(=O)[C@H](C(C)C)NC(=O)[C@H](Cc2ccc(O)cc2)NC(=O)[C@@H](NC(=O)[C@@H]2CCCN2C(=O)[C@H](C)NC(=O)[C@H](CC(C)C)NC(=O)[C@H](CC(C)C)NC(=O)[C@H](C)NC(=O)[C@H](CC(C)C)NC(=O)[C@H](CC(C)C)NC(=O)[C@@H](NC(=O)[C@H](C)NC(=O)[C@@H]2CCCN2C(=O)[C@H](CC(C)C)NC(=O)[C@H](CC(C)C)NC(=O)[C@H](C)NC(=O)[C@@H](NC(=O)[C@H](C)NC(=O)[C@H](C)N)C(C)C)C(C)C)CSSC[C@@H](C(=O)O)NC(=O)[C@@H]2CCCN2C1=O [cSN50] (H-AAVALLPAVLLALLAPCYVQRKRQKLMPC-OH; disulfide 17-29; N-terminus and C-terminus assumed)
[1]
  TCR- and TLR-evoked cytokine/chemokine production: attenuates
[2]
  absolute number of CFSE-labeled, Vβ4+ cells recovered from pancreatic lymph node: significant decrease
Insulitis in NOD mice; 35 μg/g every two hours for 24 h, begun 45 h after Cy, p<0.05, chi-square
  mice completely insulitis free: four
Insulitis in NOD mice; 35 μg/g i.p. every two hours for 24 h, begun 45 h after Cy, n=7, p<0.05 vs controls
  treated mice free of insulitis: 57%
Insulitis in NOD mice; insulitis scoring, n=7, p<0.001
  severely affected islets vs control: significantly fewer
Insulitis in NOD mice; insulitis scoring, n=7, p<0.05
  unaffected islets vs control: significantly more
Insulitis in NOD mice; [11]
  insulin staining at one year: detected
  insulitis at one year: not observed
Insulitis in NOD mice; score 0-3, 24 h treatment, n=7, control group 1.81, p=0.001, Mann-Whitney U test
  Mean insulitis score: 0.49
[3]; 35 μg/g every 2 h for 48 h, n=20, vs saline p<0.0001, vs cN50 p=0.006, combined p=0.0002 log-rank
  protection from diabetes progression vs controls: significantly protected
[3]; 2 days treatment, 35 μg/g every 2 h, 365 days of observation
  NOD mice rendered diabetes-free: 90%
[3]; 365 days of observation, no insulin replacement
  glycemic state of treated mice: remained euglycemic
[3]; between days 50 and 100
  treated animals that developed diabetes: two
[3]; days 10-30 after Cy
  protection against first wave of diabetes: 100%
[3]; days 10-30 after Cy bolus
  treated animals that developed hyperglycemia in first phase: none
[3]; days 60-100 post-Cy (ages 18-23 weeks)
  protection against second wave of diabetes: incomplete but still substantial
[3]; general statement, experiments described herein
  islet protection from immune destruction: effectively protected islets from immune destruction
[4]; anti-CD3 (0.05 or 2 μg/ml) and anti-CD28 (1 μg/ml), 65 h, p<0.005
  annexin-V staining on activated CD4 and CD8 T cells (AICD): increased
[4]; anti-CD3/28 2 μg/ml, 70 h, p=NS vs C57BL/6
  apoptosis of anti-CD3/28-stimulated NOD CD4 T cells compared with C57BL/6: normalized apoptosis to C57BL/6 levels
[4]; anti-CD3/CD28 stimulation, 65 h, p=NS
  CD4 or CD8 T cell proliferation (mitotic events, CFSE): no effect
[4]; unstimulated, 70 h culture
  apoptosis of unstimulated lymphocytes: not enhanced
[5]
  circulating (plasma) levels of IL-5: increased
Regulatory T cells
  absolute number of regulatory T cells, treated vs control: no difference
[6]
  CD80 (B7.1) expression response to LPS: attenuated
[7]
  cell death of LPS-stimulated B lymphocytes: enhanced propensity for cell death
[8]
  production of IFN-γ: suppressed
[9]
  IL-10 production by restimulated splenocytes: increased
[10]
  production of IL-1α: inhibited
  production of IL-1β: inhibited
  production of TNF-α: inhibited
